{
  "source": "patent US20210061876A1",
  "about": "“T CELL RECEPTORS FOR TUMOR SPECIFIC PROTEASOME SPLICE VARIANTS AND USES THEREOF” (Max-Delbrück-Centrum für Molekulare Medizin in der …, priority 2017, published 2021)",
  "data": [
    {"test_system": "human 20S standard and immunoproteasome", "assay": "In vitro generation of spliced peptides from synthetic mutKras G12V polypeptides by purified 20S proteasomes", "format": "biochemical", "settings": "standard proteasome and immunoproteasome; mass spectrometry", "values": [
      {"sequence": "KLVVGAVGV", "in vitro generation by 20S proteasomes": "efficient in vitro generation"},
      {"sequence": "KLVVVGVGV", "in vitro generation by 20S proteasomes": "generated in vitro by both 20S proteasome subtypes"},
      {"sequence": "KLVVVAVGV", "in vitro generation by 20S proteasomes": "generated in vitro by both 20S proteasome subtypes"}
    ]}
  ]
}
